Laboratory results as given in PMC4631508.
No constants are given. Whether binding was seen depends on the method and setting. Binding seen in cells or lysates may run through a third protein.

Biological target: GFP-Exo84 (Drosophila)
Assay: co-IP; protein extracts from Drosophila testes expressing GFP- or YFP-tagged proteins; precipitated with GFP-trap beads (ChromoTek), immunoblotted

B1: Rab11 (protein, UniProt O18335 1-214)
chain: MGAREDEYDYLFKVVLIGDSGVGKSNLLSRFTRNEFNLESKSTIGVEFATRSIEVDGKTIKAQIWDTAGQERYRAITSAYYRGAVGALLVYDIAKHLTYENVERWLRELRDHADQNIVIMLVGNKSDLRHLRSVPTDEAKLFAERNGLSFIETSALDSTNVETAFQNILTEIYRIVSQKQIRDPPEGDVIRPSNVEPIDVKPTVTADVRKQCCQ
- binding: no binding
